Test results from PubChem BioAssay AID298 (DTP/NCI, 2004).
The list is a part of this screen's results and no random one: it gathers tests that were run many times, whatever their T/C, doses with no T/C, and many T/C values between a quarter and a half above the control. Further doses and runs are listed elsewhere. T/C: endpoint of the treated group in % of that of the vehicle group. Schedule codes are those of the source, read here as Q, the interval in days (D) or hours (H), X, the number of doses. Some T/C values are negative: the treated tumours shrank. Some entries were tested several times; the values are given in rising order. Signs of the kind (2×) give the number of equal values in this list. Some T/C values are followed by the survivors on the day toxicity was checked, most often the fifth; without a count, all were alive then. Some doses have a count of surviving animals in place of a T/C: the source files T/C as zero there, which appears to mark a toxic dose or a test without result, not a measured value. Counts of survivors are from the toxicity check (mostly the fifth day) where no day follows; animals may have died later.

Test system: MX-1 breast xenograft, intrarenal, nude mice, tumor weight
Test: NCI In Vivo Anticancer Drug Screen. Data for tumor model Human Mammary Carcinoma MX-1 Xenograft (intrarenal inoculation) in NU/NU BALB/C (nude) mice
Conditions: T/C endpoint: mean tumor weight change, higher T/C = larger tumour; for T/C: evaluated on day 11
Procedure, shortened: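 T/C readout: treated-group measurement over vehicle-control measurement, using tumor size or survival in tumor-bearing mice.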

[1] = dose: 25.0 mg/kg/injection, schedule: Q04DX003 (ip), vehicle: Klucel (hydroxypropylcellulose) (HPC)
[2] = dose: 1200.0 mg/kg/injection, schedule: Q04DX003 (ip), vehicle: saline with Tween-80
[3] = dose: 600.0 mg/kg/injection, schedule: Q04DX003 (ip), vehicle: saline with Tween-80
[4] = dose: 300.0 mg/kg/injection, schedule: Q04DX003 (sc), vehicle: saline
[5] = dose: 600.0 mg/kg/injection, schedule: Q04DX003 (ip), vehicle: saline
[6] = dose: 1200.0 mg/kg/injection, schedule: Q04DX003 (ip), vehicle: saline
[7] = dose: 300.0 mg/kg/injection, schedule: Q04DX003 (ip), vehicle: Klucel (hydroxypropylcellulose) (HPC)

CC(C)NC(=O)OCc1c(COC(=O)NC(C)C)c(-c2ccc(Cl)c(Cl)c2)n2c1CCC2
T/C (dose: 30.0 mg/kg/injection, schedule: Q04DX003 (ip), vehicle: distilled water + Tween-80): -100 (2×) and 1 % of control (2×) | T/C (dose: 60.0 mg/kg/injection, schedule: Q04DX003 (ip), vehicle: distilled water + Tween-80): -87 [5 of 6 alive on day 11] (2×) and -82 % of control (2×) | T/C (dose: 120.0 mg/kg/injection, schedule: Q04DX003 (ip), vehicle: distilled water + Tween-80): -92 (2×) and -81 % of control [5 of 6 alive on day 11] (2×) | T/C (dose: 240.0 mg/kg/injection, schedule: Q04DX003 (ip), vehicle: distilled water + Tween-80): -91 [4 of 6 alive on day 11] (2×) and -67 % of control (2×)

CN=C(NC)c1ccc(NC(=O)/C=C\c2ccc(/C=C/C(=O)Nc3ccc(C(=NC)NC)cc3)cc2)cc1
survivor count (dose: 12.5 mg/kg/injection, schedule: Q04DX003 (ip), vehicle: Klucel (hydroxypropylcellulose) (HPC)): 2 of 6 on day 11 | survivor count [1]: 0 of 6 on day 11 | survivor count (dose: 50.0 mg/kg/injection, schedule: Q04DX003 (ip), vehicle: Klucel (hydroxypropylcellulose) (HPC)): 0 of 6 on day 11

ClC1(Cl)Cc2ccccc21
survivor count [2]: 0 of 6 on day 11

C/C(=N\NC(=S)N1CC2CCC(CC2)C1)c1cccc(C)n1
survivor count (dose: 100.0 mg/kg/injection, schedule: Q04DX003 (ip), vehicle: saline with Tween-80): 3 of 6 on day 11

Nc1nc(=S)c2[nH]cnc2[nH]1
T/C (dose: 0.4 mg/kg/injection, schedule: Q01DX010 (sc), vehicle: Klucel (hydroxypropylcellulose) (HPC)): 131 % of control | T/C (dose: 0.8 mg/kg/injection, schedule: Q01DX010 (sc), vehicle: Klucel (hydroxypropylcellulose) (HPC)): 125 % of control | survivor count (dose: 3.2 mg/kg/injection, schedule: Q01DX010 (sc), vehicle: Klucel (hydroxypropylcellulose) (HPC)): 1 of 3 on day 11

CCNC=O
T/C (dose: 100.0 mg/kg/injection, schedule: Q01DX010 (sc), vehicle: saline): 142 % of control

CS(=O)(=O)OCCN(CCOS(C)(=O)=O)c1ccc(C=Nc2ccc(-c3csc(COc4ccccc4)n3)cc2)cc1
survivor count (dose: 400.0 mg/kg/injection, schedule: Q01DX010 (sc), vehicle: Klucel (hydroxypropylcellulose) (HPC)): 0 of 3 on day 11

CN1C2C=CC(=O)C1C1C(=O)N(c3ccccc3)C(=O)C12 (centres undefined)
survivor count (dose: 400.0 mg/kg/injection, schedule: Q04DX003 (ip), vehicle: Klucel (hydroxypropylcellulose) (HPC)): 0 of 6 on day 11 | survivor count (dose: 800.0 mg/kg/injection, schedule: Q04DX003 (ip), vehicle: Klucel (hydroxypropylcellulose) (HPC)): 0 of 6 on day 11

C/C(=N\NC(=S)N1CC2CCC(CC2)C1)c1nccs1
survivor count (dose: 150.0 mg/kg/injection, schedule: Q04DX003 (ip), vehicle: saline with Tween-80): 2 of 6 on day 11 | survivor count (dose: 300.0 mg/kg/injection, schedule: Q04DX003 (ip), vehicle: saline with Tween-80): 0 of 6 on day 11 | survivor count [3]: 0 of 6 on day 11

C=CCNC(=O)c1ccccc1SC(C)=O
survivor count [3]: 1 of 6 on day 11 | survivor count [2]: 0 of 6 on day 11

Nc1ncnc2c1ncn2C1OC(CO)C(O)C1O (centres undefined)
survivor count [4]: 0 of 6 on day 11

Cn1nnc2c(C(N)=O)ncn2c1=O
survivor count [5]: 0 of 6 on day 11 | survivor count (dose: 600.0 mg/kg/injection, schedule: Q04DX003 (ip), vehicle: suspension in saline): 0 of 6 on day 11 | survivor count [6]: 0 of 6 on day 11

O=C1C=C2C(=CCOC2O)O1 (centres undefined)
survivor count (dose: 8.0 mg/kg/injection, schedule: Q04DX003 (sc), vehicle: Klucel (hydroxypropylcellulose) (HPC)): 3 of 6 on day 11

C1CCC2C[N-]CCC2C1.C1CCC2C[N-]CCC2C1.C1CCC2C[N-]CCC2C1.C1CCC2C[N-]CCC2C1.[Cl][Rh][Cl] (centres undefined)
T/C (dose: 288.0 mg/kg/injection, schedule: Q04DX003 (sc), vehicle: saline with Tween-80): 125 % of control

COc1cc2c(c3c1c(=O)c1ccccc1n3C)C=CC(C)(C)O2
survivor count [7]: 2 of 6 on day 11

CCc1nc(N)nc(N)c1-c1ccc(Cl)c([N+](=O)[O-])c1
survivor count (dose: 150.0 mg/kg/injection, schedule: Q04DX003 (sc), vehicle: saline with Tween-80): 0 of 6 on day 11

CC(=O)OCN(C)C=O
T/C (dose: 300.0 mg/kg/injection, schedule: Q01DX010 (ip), vehicle: suspension in saline): 138 % of control | survivor count (dose: 600.0 mg/kg/injection, schedule: Q01DX010 (ip), vehicle: suspension in saline): 0 of 3 on day 11 | survivor count (dose: 1200.0 mg/kg/injection, schedule: Q01DX010 (ip), vehicle: suspension in saline): 0 of 3 on day 11 and 0 of 4 on day 11 | survivor count (dose: 2400.0 mg/kg/injection, schedule: Q01DX010 (ip), vehicle: suspension in saline): 0 of 3 on day 11 and 0 of 4 on day 11 | survivor count (dose: 4800.0 mg/kg/injection, schedule: Q01DX010 (sc), vehicle: saline): 3 of 6 on day 11

C=Cc1cc(OC)c2c(c1)c(=O)oc1c2cc(OC)c2c(O)ccc(C3OC(C(C)O)C(O)C3O)c21 (centres undefined)
survivor count [7]: 1 of 6 on day 11 | survivor count (dose: 450.0 mg/kg/injection, schedule: Q04DX003 (ip), vehicle: Klucel (hydroxypropylcellulose) (HPC)): 3 of 6 on day 11 | survivor count (dose: 600.0 mg/kg/injection, schedule: Q04DX003 (ip), vehicle: Klucel (hydroxypropylcellulose) (HPC)): 1 of 6 on day 11 | survivor count (dose: 1200.0 mg/kg/injection, schedule: Q04DX003 (ip), vehicle: Klucel (hydroxypropylcellulose) (HPC)): 0 of 6 on day 11

O=S(=O)(c1cccc(N=C=S)c1)c1cccc(N=C=S)c1
T/C [1]: 132 % of control

COc1c(C=O)c2c(c(OC)c1OC)-c1ccc(OC)c(=O)cc1[C@@H](NC(C)=O)CC2
survivor count (dose: 75.0 mg/kg/injection, schedule: Q04DX003 (sc), vehicle: Klucel (hydroxypropylcellulose) (HPC)): 1 of 6 on day 11

O=C[C@@H](CO)O[C@H](C=O)n1cnc2c(=O)[nH]cnc21
survivor count (dose: 800.0 mg/kg/injection, schedule: Q04DX003 (sc), vehicle: saline with Tween-80): 0 of 3 on day 11

CC(NNC(=S)N(C)C1CCCCC1)c1cc2ccccc2cn1 (centres undefined)
survivor count (dose: 300.0 mg/kg/injection, schedule: Q04DX003 (ip), vehicle: saline): 3 of 6 on day 11 | survivor count [5]: 0 of 6 on day 11 | survivor count [6]: 0 of 6 on day 11

Nc1c(/C=C/c2cc3cc(C4=NCCN4)ccc3o2)[nH]c2cc(C3=NCCN3)ccc12
survivor count [7]: 0 of 6 on day 11

C=C1COC(O)(C2OCOC(C3CC(=O)NC(=O)C3)C2O)C1C (centres undefined)
T/C (dose: 75.0 micrograms/kg/injection, schedule: Q04DX003 (ip), vehicle: water): 139 % of control [5 of 6 alive on day 11] | survivor count (dose: 150.0 micrograms/kg/injection, schedule: Q04DX003 (ip), vehicle: water): 1 of 6 on day 11 | survivor count (dose: 300.0 micrograms/kg/injection, schedule: Q04DX003 (ip), vehicle: water): 0 of 6 on day 11

CS(=O)(=O)OCCCNCCCOS(C)(=O)=O
survivor count (dose: 150.0 mg/kg/injection, schedule: Q04DX003 (sc), vehicle: saline): 0 of 6 on day 11 | survivor count [4]: 0 of 6 on day 11 | survivor count (dose: 600.0 mg/kg/injection, schedule: Q04DX003 (sc), vehicle: saline): 0 of 6 on day 11

CN(C)c1ccc(C(=C2C=CC(=[N+](C)C)C=C2)c2ccc(N(C)C)cc2)cc1 (tested in a mixture with another compound)
survivor count (dose: 300.0 mg/kg/injection, schedule: Q04DX003 (sc), vehicle: saline with Tween-80): 3 of 6 on day 11 | survivor count (dose: 600.0 mg/kg/injection, schedule: Q04DX003 (sc), vehicle: saline with Tween-80): 2 of 6 on day 11 | survivor count (dose: 1200.0 mg/kg/injection, schedule: Q04DX003 (sc), vehicle: saline with Tween-80): 0 of 6 on day 11
